The values that follow come from patent US20260049134A1.

Test [1] concerns the target T1, GARS-His (Sino Biological) (human) (UniProt P41250).
T1 sequence: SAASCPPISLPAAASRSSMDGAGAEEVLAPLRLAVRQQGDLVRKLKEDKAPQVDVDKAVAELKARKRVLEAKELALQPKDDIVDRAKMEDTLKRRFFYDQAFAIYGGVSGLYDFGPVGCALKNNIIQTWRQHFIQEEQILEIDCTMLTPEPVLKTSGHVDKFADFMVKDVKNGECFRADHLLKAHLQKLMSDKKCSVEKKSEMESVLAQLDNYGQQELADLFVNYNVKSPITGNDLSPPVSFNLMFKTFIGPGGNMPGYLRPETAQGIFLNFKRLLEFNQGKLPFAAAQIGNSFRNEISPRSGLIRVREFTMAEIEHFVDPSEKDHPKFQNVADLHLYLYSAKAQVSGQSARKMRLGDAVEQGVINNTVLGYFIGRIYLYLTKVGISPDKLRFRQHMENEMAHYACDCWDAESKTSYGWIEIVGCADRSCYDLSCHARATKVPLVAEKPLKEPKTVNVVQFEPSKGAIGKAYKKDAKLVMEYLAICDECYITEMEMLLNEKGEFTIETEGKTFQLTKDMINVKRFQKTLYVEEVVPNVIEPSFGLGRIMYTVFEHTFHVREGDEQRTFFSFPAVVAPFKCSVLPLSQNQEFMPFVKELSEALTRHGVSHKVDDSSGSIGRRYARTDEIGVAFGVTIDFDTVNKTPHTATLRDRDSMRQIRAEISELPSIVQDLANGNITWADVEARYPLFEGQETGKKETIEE
The experiment in a line: summary table, column Validation (ELISA).

The target in test [2] is T1, GARS-His (Sino Biological) (human). The experiment in a line: ELISA, coated recombinant GARS-His, IgG1, anti-human Fab-peroxidase.
For test [3] the target is unchanged. The experiment in a line: ELISA on coated protein, 150 ng IgG1, anti-human Fab-HRP, heatmap 0.05-0.8. On the technique in general: An ELISA detects its analyte on a solid surface through an enzyme-linked reagent.
The target in test [4] is T2, GARS, endogenous in H929 multiple myeloma cells (human) (UniProt P41250).
T2 sequence: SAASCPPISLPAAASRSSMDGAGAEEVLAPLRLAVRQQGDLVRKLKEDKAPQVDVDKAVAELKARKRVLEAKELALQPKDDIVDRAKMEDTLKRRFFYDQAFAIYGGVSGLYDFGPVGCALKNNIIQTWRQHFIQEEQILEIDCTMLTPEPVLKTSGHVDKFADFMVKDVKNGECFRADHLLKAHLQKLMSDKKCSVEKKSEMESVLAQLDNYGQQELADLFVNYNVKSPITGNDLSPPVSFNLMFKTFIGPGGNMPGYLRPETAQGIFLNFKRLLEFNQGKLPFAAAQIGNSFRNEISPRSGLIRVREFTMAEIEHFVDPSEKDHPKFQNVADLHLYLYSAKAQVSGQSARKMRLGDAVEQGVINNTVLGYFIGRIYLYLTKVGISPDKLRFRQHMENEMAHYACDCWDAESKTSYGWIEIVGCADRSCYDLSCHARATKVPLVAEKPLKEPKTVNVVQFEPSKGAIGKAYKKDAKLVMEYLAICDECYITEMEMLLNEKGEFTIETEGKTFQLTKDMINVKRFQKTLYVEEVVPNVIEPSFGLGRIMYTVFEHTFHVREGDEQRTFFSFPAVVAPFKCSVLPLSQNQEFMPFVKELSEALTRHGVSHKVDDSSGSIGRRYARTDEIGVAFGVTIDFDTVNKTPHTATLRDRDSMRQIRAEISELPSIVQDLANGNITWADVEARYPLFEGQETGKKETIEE
The experiment in a line: IP from H929 lysate with LC-MS/MS, correlated with FACS/RNA-seq.

Test [5] concerns the target T2, GARS, endogenous in H929 multiple myeloma cells (human). The experiment in a line: IP from H929 cell lysate, LC-MS/MS, plotted against RNA-seq.
The target of test [6] is T3, CADM1 expressed on HEK293 cells of the Retrogenix protein array (UniProt Q9BY67).
T3 sequence (looked up): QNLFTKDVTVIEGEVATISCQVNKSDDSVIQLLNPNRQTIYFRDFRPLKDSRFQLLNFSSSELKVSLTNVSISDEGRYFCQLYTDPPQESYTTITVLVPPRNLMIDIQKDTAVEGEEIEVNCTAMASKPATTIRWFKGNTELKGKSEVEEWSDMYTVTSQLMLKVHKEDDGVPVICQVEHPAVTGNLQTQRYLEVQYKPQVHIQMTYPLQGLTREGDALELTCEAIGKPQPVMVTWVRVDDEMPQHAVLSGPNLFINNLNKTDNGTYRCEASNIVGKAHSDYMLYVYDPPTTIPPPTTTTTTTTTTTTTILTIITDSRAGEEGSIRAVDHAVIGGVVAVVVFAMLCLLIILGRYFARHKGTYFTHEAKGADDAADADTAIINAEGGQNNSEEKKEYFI
The experiment in a line: summary table, column Retrogenix protein array (targets on HEK293 cells).

Results are given in words; binding and its absence hold for the method and conditions named. Some binding calls cover weakened binding; strength is not graded here. For some of these results: Sequences can lack the tags named with a protein.

B1: HW-56 chimeric rabbit-human IgG1 LA/LA/PG (antibody, V domains shown)
VH: QSVKESEGGLFKPTDTLTLTCTASGFTVSTNAVTWVRQAPGNGLEYIGTIGRSGSAYFASWAKRRSTLTRDINLNTVTLKMTSLTAADTATYFCVRGSPGYRTAISIWGPGTLVTISS
VL: AVMTQTPSSTSAAVEGTVTINCQASQSISNRLSWFQQKPGQPPKLLIYQASTLASGVPSRFKGSGSGTEFTLTISGVQREDAATYYCLGSYSSSDASFGGGTKLEIKR
Consider B1, for which the binding result in test [1], in test [2] and in test [3] was “binds” in each case.

B2: HW-81 chimeric rabbit-human IgG1 LA/LA/PG (antibody, V domains shown)
VH: QKQLVESGGGLVTPGGTLTLTCTVSGFSLSSNGVSWVRQAPGKGLEYIGLIRSIGSTYYATWAKGRFTISKTSTTVDLKITSPTTEDTATYFCARGGYRNGFKLWGPGTLVTVSS
VL: QPVLTQSPSVSAALGASAKLTCTLSSAHKTYYIEWYQQQHPGKAPRYLMQLQSDGSYTKGTGVPDRFSGSSSGADRYLIISSVQAEDEADYICGVIDSAVYVFGGGTQLTVTG
Regarding B2, the binding result in test [1], in test [2] and in test [3] was “binds” each time.

B3: HW-16 chimeric rabbit-human IgG1 LA/LA/PG (antibody, V domains shown)
VH: QSLEESGGRLVTPGTPLTLTCTASGFSLSSYAMSWVRQAPGKGLEWIGTMPTGGGTYYASWAKGRFTISKTSTTVDLQITSPTTEDTATYFCAKHWNIWGPGTLVTISS
VL: DIVLTQTPSSTSTAVGDTVTINCRASQSIGRNLAWFQQKPGQPPKLLIYRASNLASGVPSRFKGSGSRTQFTLTISGVQREDAATYYCLGSYSSSDTAFGGGTELEILR
For the molecule B3, the binding entry in test [1], in test [2] and in test [3] was “binds” in each case.

B4: HW-45 chimeric rabbit-human IgG1 LA/LA/PG (antibody, V domains shown)
VH: QKQLVESGGRLVTPGTPLTLTCTVSGFSLSSYAMGWFRQAPGKGLEWIGIINSYGSTYYASWAKGRFTISKTSTTVDLKITSPTTEDTATYFCGRRIGSARFDPWGPGTLVTVSS
VL: SFVLTQPASVQVNLGQTVSLTCTADTLSRSYASWYQQKPGQAPVLLIYRDTRRPSGVPDRFSGSSSGNTATLTISGAQAGDEADYYCATSDGSGSSYRLVFGGGTQLTVTG
Turning to B4, the binding result in test [1], in test [4], in test [5], in test [2] and in test [3] was “binds” throughout.

B5: HW-97 chimeric rabbit-human IgG1 LA/LA/PG (antibody, V domains shown)
VH: QKQLVESGGRLVTPGTPLTLTCTVTGIDLSSHGMSWVRQAPGKGLEWIGVIYPSGSTWYASWARGRFTISKTSTTVDLKMTSLTTEDTATHFCARGDVGGADNNIWGPGTLVTVSS
VL: SFVLTQPASVQVDLGQTVSLTCTAETLSRSYASWYQQKPGQAPVLLIYRDTSRPSGVPDRFSGSSSGNTATLTISGAQAGDEADYYCATSDGSGSSYQYVFGGGTQLTVTG
On to B5, for which the binding entry in test [6] is given as “binds”.

B6: HW-28 chimeric rabbit-human IgG1 LA/LA/PG (antibody, V domains shown)
VH: QKQLVESGGRLVTPGTPLTLTCTASGFSLSSNAMSWVRQAPGEGLQWIGTISSGGSTYYASWAKGRFTISKTSTTVTLKMTSLTTEDTATYFCARGADLHRLWGPGTLVTVSS
VL: SFVLTQPASVQVNLGQTVSLTCTGKPLSRSFASWYQQKPGQAPVLVIYRDTSRPSGVPDRFSGSSSGNTATLTISGAQAGDEADYYCATSDGSGSSYQYVFGGGTQLTVTG
Consider B6, for which the binding result in test [1], in test [2] and in test [3] was “binds” throughout.

B7: HW-101 chimeric rabbit-human IgG1 LA/LA/PG (antibody, V domains shown)
VH: QEQLVESGGRLVTPGTPLTLTCKASGFSLGKYDMSWVRQAPGKGLEWIGTIYAGSGSTWYASWAKGRFTISKTSTTVDLKMTSLTTEDTATYFCARDFLGVNSIWGPGTLVTISS
VL: SFVLTQPASVQVNLGQTVSLTCTADTLSRSYASWYQQKPDQAPVLLIHRDTSRPSGVPDRFSGSNSGNTATLTISGAQAGDEADYYCATSDGSGSNFHFVFGGGTQLTVTG
On to B7, for which the binding result in test [6] is “binds”.
